Experimental data reported in the supplement of paper PMC10849652.
The other results are listed elsewhere or left out.

Chains of the proteins cited; added tags and fusions are not shown. Lines headed by an entry give the natural chain unless they say otherwise; changes in a name come on top.
UniProt Q8NB78: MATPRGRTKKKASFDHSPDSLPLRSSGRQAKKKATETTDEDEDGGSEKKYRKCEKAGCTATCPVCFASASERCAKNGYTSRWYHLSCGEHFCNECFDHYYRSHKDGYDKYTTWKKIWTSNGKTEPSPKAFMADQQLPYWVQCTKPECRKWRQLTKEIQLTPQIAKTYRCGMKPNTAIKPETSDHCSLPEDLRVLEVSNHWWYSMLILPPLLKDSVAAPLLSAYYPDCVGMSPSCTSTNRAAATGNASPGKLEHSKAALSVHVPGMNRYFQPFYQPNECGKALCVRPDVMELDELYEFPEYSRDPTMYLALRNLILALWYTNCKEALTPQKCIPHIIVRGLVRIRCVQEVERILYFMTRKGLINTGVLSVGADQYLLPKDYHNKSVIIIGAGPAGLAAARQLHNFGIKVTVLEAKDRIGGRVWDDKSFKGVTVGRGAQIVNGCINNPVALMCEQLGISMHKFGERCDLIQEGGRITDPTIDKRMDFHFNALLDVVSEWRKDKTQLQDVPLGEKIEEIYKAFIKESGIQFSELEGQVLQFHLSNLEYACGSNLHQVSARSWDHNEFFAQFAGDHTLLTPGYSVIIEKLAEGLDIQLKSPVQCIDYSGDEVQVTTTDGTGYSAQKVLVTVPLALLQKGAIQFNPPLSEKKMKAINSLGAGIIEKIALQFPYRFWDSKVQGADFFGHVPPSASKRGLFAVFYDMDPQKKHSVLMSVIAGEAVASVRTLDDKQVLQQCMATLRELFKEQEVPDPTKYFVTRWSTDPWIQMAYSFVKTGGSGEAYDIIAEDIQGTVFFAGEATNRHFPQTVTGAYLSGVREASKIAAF
UniProt Q8WYB5, whole entry, looked up: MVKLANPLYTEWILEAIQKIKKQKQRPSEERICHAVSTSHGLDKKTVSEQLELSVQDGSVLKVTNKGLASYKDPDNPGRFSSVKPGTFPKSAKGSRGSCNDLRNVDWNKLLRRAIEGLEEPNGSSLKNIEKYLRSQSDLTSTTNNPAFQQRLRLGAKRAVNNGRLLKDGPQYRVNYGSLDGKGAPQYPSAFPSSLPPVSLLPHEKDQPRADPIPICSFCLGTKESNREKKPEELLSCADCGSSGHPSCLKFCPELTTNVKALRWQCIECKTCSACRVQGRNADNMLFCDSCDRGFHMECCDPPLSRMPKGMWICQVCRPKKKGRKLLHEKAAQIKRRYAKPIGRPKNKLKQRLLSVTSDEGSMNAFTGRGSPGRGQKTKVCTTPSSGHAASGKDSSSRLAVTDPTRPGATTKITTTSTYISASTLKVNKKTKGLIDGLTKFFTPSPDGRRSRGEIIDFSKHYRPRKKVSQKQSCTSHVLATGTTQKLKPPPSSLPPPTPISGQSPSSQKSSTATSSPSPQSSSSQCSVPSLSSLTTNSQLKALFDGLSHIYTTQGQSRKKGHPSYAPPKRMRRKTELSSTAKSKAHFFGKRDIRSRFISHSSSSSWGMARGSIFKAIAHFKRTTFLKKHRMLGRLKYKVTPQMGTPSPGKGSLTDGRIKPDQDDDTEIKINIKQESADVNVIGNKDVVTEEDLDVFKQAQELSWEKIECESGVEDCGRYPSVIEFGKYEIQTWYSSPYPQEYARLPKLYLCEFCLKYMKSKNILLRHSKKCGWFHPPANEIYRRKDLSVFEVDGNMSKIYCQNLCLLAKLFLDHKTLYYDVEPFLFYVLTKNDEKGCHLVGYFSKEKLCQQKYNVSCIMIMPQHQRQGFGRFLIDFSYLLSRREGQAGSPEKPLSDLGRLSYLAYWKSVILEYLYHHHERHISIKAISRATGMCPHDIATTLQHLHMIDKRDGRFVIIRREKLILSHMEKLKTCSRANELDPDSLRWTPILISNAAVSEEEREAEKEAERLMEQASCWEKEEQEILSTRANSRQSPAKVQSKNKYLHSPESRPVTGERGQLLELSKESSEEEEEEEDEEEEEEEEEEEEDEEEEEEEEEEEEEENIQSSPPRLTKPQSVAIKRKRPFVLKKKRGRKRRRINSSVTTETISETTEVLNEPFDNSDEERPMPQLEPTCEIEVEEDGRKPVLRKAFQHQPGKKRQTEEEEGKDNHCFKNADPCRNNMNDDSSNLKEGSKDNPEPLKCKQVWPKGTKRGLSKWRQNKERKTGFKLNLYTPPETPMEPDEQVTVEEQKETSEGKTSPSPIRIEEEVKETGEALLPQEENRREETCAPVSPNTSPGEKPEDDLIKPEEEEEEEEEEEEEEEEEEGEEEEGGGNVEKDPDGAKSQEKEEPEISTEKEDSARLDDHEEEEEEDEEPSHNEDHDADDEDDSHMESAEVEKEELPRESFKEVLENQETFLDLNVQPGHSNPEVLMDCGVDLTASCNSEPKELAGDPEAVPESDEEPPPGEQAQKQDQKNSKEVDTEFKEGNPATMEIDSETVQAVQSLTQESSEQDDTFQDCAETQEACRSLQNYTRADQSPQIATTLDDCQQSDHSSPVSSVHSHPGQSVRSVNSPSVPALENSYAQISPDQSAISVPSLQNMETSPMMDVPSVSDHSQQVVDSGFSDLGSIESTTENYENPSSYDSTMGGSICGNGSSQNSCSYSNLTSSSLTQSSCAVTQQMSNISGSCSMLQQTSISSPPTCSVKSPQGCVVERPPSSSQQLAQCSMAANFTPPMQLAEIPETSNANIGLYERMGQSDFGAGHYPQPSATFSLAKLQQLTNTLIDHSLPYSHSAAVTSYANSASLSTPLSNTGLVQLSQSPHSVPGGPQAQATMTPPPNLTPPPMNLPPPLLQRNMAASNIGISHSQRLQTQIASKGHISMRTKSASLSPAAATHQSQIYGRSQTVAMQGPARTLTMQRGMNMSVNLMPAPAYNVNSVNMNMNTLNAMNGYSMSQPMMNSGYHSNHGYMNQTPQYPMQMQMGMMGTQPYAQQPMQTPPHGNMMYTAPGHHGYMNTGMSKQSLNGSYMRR
UniProt Q6P597: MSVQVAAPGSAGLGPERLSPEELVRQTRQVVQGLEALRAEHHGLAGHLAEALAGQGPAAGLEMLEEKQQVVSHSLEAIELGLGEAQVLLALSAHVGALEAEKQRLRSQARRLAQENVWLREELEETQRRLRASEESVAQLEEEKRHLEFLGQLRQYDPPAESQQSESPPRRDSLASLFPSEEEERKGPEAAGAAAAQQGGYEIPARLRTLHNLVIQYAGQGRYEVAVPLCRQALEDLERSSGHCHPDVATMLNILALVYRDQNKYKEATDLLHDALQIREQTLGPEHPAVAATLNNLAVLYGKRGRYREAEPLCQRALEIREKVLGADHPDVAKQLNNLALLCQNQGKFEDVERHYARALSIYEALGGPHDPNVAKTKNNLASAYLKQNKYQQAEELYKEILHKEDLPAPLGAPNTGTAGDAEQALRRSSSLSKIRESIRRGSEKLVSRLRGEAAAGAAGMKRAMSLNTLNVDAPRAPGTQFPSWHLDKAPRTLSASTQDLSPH
UniProt Q13351: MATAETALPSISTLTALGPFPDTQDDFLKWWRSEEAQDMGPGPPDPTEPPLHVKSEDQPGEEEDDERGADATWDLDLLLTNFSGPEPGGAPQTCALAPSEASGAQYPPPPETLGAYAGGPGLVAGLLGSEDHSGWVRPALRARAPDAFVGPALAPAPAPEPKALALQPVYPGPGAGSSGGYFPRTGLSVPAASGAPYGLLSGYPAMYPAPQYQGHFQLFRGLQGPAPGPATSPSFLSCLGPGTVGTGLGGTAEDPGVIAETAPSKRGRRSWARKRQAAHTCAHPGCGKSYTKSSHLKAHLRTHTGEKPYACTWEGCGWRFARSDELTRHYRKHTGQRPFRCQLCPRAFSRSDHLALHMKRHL
UniProt Q4G0X4: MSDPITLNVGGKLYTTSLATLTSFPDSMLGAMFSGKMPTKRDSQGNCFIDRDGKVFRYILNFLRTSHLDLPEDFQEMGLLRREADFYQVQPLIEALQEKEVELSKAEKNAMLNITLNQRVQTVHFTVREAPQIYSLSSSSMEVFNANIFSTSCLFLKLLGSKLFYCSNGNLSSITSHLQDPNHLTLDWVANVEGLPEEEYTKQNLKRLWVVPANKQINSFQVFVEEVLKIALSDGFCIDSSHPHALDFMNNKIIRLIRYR
UniProt Q13601: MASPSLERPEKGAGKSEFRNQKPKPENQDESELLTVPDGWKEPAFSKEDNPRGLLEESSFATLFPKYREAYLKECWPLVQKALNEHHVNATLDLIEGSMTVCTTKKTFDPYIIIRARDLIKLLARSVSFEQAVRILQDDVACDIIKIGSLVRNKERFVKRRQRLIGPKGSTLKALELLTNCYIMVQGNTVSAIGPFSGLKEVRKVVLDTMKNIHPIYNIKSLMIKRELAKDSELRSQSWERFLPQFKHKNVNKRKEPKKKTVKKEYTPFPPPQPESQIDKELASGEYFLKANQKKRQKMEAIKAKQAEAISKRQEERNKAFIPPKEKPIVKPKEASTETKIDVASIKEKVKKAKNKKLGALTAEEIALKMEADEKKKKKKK
UniProt Q1ED39: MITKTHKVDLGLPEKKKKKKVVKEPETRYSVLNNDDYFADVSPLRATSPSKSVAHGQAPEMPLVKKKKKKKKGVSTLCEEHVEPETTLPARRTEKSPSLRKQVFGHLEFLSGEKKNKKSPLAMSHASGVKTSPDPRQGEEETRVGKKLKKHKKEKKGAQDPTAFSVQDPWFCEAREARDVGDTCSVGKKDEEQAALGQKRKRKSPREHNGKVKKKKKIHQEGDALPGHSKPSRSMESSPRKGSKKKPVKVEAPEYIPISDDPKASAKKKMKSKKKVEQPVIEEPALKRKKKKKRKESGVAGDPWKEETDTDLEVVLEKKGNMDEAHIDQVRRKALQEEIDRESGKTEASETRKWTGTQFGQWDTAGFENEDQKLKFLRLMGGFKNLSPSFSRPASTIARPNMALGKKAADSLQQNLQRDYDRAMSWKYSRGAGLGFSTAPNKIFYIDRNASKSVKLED
UniProt Q15053: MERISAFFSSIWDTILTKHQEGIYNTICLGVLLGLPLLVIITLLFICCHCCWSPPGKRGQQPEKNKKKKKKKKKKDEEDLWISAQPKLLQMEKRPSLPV
UniProt O75037: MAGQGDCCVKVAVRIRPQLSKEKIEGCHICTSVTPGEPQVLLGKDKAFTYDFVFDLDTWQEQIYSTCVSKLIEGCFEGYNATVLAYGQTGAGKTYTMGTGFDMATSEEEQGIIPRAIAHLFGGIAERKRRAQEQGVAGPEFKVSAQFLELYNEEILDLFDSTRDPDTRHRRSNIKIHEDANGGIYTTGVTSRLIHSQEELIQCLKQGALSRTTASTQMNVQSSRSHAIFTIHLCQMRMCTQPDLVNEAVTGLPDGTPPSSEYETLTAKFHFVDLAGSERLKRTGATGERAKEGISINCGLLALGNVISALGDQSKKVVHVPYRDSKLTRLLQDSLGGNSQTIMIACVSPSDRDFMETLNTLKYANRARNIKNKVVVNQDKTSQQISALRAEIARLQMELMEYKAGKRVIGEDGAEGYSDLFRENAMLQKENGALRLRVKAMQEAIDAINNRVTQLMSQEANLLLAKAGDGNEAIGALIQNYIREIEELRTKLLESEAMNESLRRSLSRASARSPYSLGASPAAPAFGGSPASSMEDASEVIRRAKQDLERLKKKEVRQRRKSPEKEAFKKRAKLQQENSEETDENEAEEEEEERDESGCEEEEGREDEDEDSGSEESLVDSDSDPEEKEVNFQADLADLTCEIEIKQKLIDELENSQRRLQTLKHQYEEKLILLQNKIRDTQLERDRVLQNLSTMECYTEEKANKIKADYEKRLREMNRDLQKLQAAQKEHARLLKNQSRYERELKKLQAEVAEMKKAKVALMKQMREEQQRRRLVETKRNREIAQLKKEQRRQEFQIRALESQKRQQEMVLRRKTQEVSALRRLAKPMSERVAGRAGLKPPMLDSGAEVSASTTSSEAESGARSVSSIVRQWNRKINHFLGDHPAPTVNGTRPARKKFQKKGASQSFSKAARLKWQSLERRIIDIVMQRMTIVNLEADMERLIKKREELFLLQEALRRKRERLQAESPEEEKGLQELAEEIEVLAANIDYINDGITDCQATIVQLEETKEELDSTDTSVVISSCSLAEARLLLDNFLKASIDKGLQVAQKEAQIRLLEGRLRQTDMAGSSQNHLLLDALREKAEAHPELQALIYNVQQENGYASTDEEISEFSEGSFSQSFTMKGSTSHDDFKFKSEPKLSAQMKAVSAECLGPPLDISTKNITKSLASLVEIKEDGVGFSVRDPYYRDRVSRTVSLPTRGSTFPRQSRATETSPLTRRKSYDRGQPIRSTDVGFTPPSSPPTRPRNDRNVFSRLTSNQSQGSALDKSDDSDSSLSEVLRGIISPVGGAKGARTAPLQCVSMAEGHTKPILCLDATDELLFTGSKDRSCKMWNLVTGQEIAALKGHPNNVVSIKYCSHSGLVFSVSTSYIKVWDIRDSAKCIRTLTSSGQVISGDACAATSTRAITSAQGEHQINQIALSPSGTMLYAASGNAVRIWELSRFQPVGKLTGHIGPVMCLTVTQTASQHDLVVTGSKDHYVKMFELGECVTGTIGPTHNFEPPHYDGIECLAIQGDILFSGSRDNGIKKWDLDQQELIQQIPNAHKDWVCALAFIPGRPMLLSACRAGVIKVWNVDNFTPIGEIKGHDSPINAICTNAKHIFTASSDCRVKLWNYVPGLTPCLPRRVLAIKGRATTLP

What was measured:
Test in all cases: log2 fold change, soluble protein after heating vs DMSO (PISA); higher = thermal stabilisation; K562 cells, 10 uM, 30 min; active = over 0.2 and 3.5 SD of the protein, either way, in both replicates (recomputed)
[1] = compound: NC(=O)Nc1cc(-c2cccc(F)c2)sc1C(=O)N[C@H]1CCCNC1
How it was run: (§1)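 K562 cells at 2×10^6 cells/mL were exposed to 10 μM compound for 30 min, then aliquots were heated for 3 min across 48°C-58°C, pooled, and extracted in PBS containing 0.5% NP-40 at 4°C. The supernatant after 21,000xg for 90 min was taken as soluble protein and measured by TMTpro 16plex LC-MS/MS with channel sums equalised. Thermal stability is reported relative to control samples, with values from duplicates. Fold changes are given on a log2 scale.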

[2] = compound: NC(=O)c1cnc(N[C@@H]2CCCC[C@@H]2N)nc1Nc1cccc(-n2nccn2)c1
How it was run: as §1

[3] = compound: NC1(c2ccc(-c3nc4ccn5c(=O)[nH]nc5c4cc3-c3ccccc3)cc2)CCC1
How it was run: as §1

[4] = compound: NCC(=O)Nc1ccc(-n2nc(C(F)(F)F)cc2-c2ccc3c(ccc4ccccc43)c2)cc1
How it was run: as §1

entinostat = compound: Nc1ccccc1NC(=O)c1ccc(CNC(=O)OCc2cccnc2)cc1 [entinostat]
How it was run: as §1

vorinostat = compound: O=C(CCCCCCC(=O)Nc1ccccc1)NO [vorinostat]
How it was run: as §1

citarinostat = compound: O=C(CCCCCCNC(=O)c1cnc(N(c2ccccc2)c2ccccc2Cl)nc1)NO [citarinostat]
How it was run: as §1

silmitasertib = compound: O=C(O)c1ccc2c(c1)nc(Nc1cccc(Cl)c1)c1ccncc12 [silmitasertib]
How it was run: as §1

[5] = compound: O=C1NC(=O)C(c2cnc3ccccn23)=C1c1cn2c3c(cc(F)cc13)CN(C(=O)N1CCCCC1)CC2
How it was run: as §1

[6] = compound: c1cc(OCCN2CCCCC2)cc(-c2n[nH]c3ccc(-c4nnc[nH]4)cc23)c1
How it was run: as §1

entospletinib = compound: c1cn2cc(-c3ccc4cn[nH]c4c3)nc(Nc3ccc(N4CCOCC4)cc3)c2n1 [entospletinib]
How it was run: as §1

Measured: log2 fold change

KRTCAP2 isoform 2 (UniProt Q8N6L1)
inactive: [1] 0.001 | [2] -0.045 | [3] -0.044 | [4] 0.047 | entinostat -0.111 | vorinostat 0.045 | citarinostat 0.015 | silmitasertib 0.037 | [5] 0.05 | [6] -0.114 | entospletinib -0.011

KLHDC8B (UniProt Q8IXV7)
inactive: [1] 0 | [2] 0.029 | [3] -0.252 | [4] -0.023 | entinostat -0.044 | vorinostat -0.157 | silmitasertib 0.319

JPT2 isoform 2 (UniProt Q9H910)
inactive: [1] 0.015 | [2] 0.11 | [3] 0.074 | [4] 0.18 | entinostat 0.033 | citarinostat 0.1 | silmitasertib -0.233 | [6] 0.046 | entospletinib 0.091

KPNA3 (UniProt O00505)
inactive: [1] 0.045 | [2] -0.064 | [3] -0.111 | [4] -0.036 | entinostat -0.017 | vorinostat -0.027 | citarinostat 0.045 | silmitasertib -0.015 | [5] -0.012 | [6] -0.056 | entospletinib -0.052

KCNN4 (UniProt O15554)
inactive: [1] 0.289 | [2] 0.076 | [3] -0.093 | [4] 0.145 | entinostat 0.049 | citarinostat -0.015 | silmitasertib 0.153 | [6] -0.239 | entospletinib -0.036

KCNAB2 (UniProt Q13303)
inactive: [1] 0.04 | [2] -0.016 | [3] -0.069 | [4] -0.04 | entinostat -0.021 | vorinostat -0.1 | citarinostat 0.117 | silmitasertib 0.037 | [5] -0.037 | [6] -0.051 | entospletinib -0.015

KMT5A (UniProt Q9NQR1)
inactive: [1] 0.069 | entinostat -0.258 | vorinostat 0.096

KLC1 isoform 3 (UniProt Q07866)
inactive: [2] -0.129

KDM1B (UniProt Q8NB78)
inactive: [1] -0.032 | [3] -0.049 | entinostat -0.183 | citarinostat -0.044 | silmitasertib 0.067 | [6] 0.383 | entospletinib -0.019

KCNK5 (UniProt O95279)
inactive: [1] -0.066 | [3] 0.16 | entinostat 0.031 | vorinostat -0.102 | citarinostat 0.198 | silmitasertib 0.093 | [5] 0.004 | [6] 0.005

KIF1C (UniProt O43896)
inactive: [1] -0.091 | entinostat 0.169

KISS1R (UniProt Q969F8)
inactive: [1] -0.074 | [3] 0.041 | entinostat -0.142 | vorinostat 0.097 | silmitasertib -0.022 | [5] -0.016

KIF26A (UniProt Q9ULI4)
inactive: [1] -0.042 | [3] -0.103 | entinostat -0.021 | citarinostat 0.061 | silmitasertib -0.001 | [6] -0.154 | entospletinib 0.07

KIN (UniProt O60870)
inactive: [1] -0.009 | entinostat -0.098 | vorinostat 0.07

JAK3 (UniProt P52333)
inactive: [1] 0 | [3] -0.045 | [4] -0.102 | entinostat -0.019 | vorinostat -0.048 | silmitasertib -0.003 | [5] 0.002

KAT6B (UniProt Q8WYB5)
inactive: [2] -0.033 | [3] -0.008 | [4] 0.021 | vorinostat 0.069 | citarinostat 0.111 | silmitasertib 0.081 | [6] -0.062 | entospletinib 0.008

KIF13A isoform 4 (UniProt Q9H1H9)
inactive: [1] -0.034 | [2] -0.165 | entinostat 0.303

KIDINS220 isoform 2 (UniProt Q9ULH0)
inactive: [1] -0.26 | [4] -0.402 | entinostat -0.211 | [5] -0.291

KMT2A isoform 3 (UniProt Q03164)
inactive: [1] -0.24 | entinostat -0.077 | vorinostat 0.058

KIAA0930 isoform 2 (UniProt Q6ICG6)
inactive: [1] -0.148 | [3] -0.076 | [4] -0.037 | entinostat -0.076 | citarinostat -0.214 | silmitasertib 0.026 | [5] 0.135 | [6] -0.059 | entospletinib -0.212

JMJD7 (UniProt P0C870)
inactive: [1] -0.125 | entinostat 0.111 | citarinostat 0.063 | [5] -0.142 | [6] -0.154 | entospletinib 0.117

KLC3 isoform 3 (UniProt Q6P597)
inactive: [1] -0.44 | entinostat 0.094

KDM2B (UniProt Q8NHM5)
inactive: [1] -0.196 | entinostat 0.143

JUN (UniProt P05412)
inactive: [1] -0.286 | [3] 0.092 | entinostat -0.094 | citarinostat -0.124 | silmitasertib 0.039 | [6] 0.197 | entospletinib 0.071

KNL1 (UniProt Q8NG31)
inactive: [1] 0.088 | [3] -0.023 | entinostat 0.007 | vorinostat 0.109 | citarinostat 0.168 | silmitasertib -0.059 | [5] 0.106 | [6] -0.031 | entospletinib -0.269

JMJD4 (UniProt Q9H9V9)
inactive: [1] -0.119 | [2] -0.03 | entinostat -0.142

KLF1 (UniProt Q13351)
inactive: [1] -0.012 | [3] 0.18 | [4] 0.116 | entinostat -0.301 | vorinostat -0.069 | citarinostat -0.092 | silmitasertib -0.016 | [6] -0.189 | entospletinib 0.098

KDELR1 (UniProt P24390)
inactive: [1] 0.187 | [3] 0 | entinostat -0.127 | citarinostat 0.05 | silmitasertib 0.005 | [5] 0.27 | [6] -0.065 | entospletinib 0.072

KIFC3 isoform 6 (UniProt Q9BVG8)
inactive: [1] -0.499 | [3] -0.212 | [4] 0.039 | entinostat -0.285 | vorinostat -0.144 | citarinostat -0.216 | silmitasertib 0.103 | [5] -0.138 | [6] -0.262 | entospletinib 0.2

KBTBD7 (UniProt Q8WVZ9)
inactive: [1] 0.154 | entinostat -0.076 | vorinostat -0.027

KCNK1 (UniProt O00180)
inactive: [1] 0.072 | entinostat -0.071 | vorinostat -0.143 | citarinostat -0.077 | [5] -0.006 | [6] 0.504 | entospletinib -0.138

KSR2 (UniProt Q6VAB6)
inactive: [1] -0.107 | entinostat 0.136 | vorinostat 0.077 | [5] 0.094

KCTD21 (UniProt Q4G0X4)
inactive: [1] -0.013 | [2] -0.039 | entinostat -0.039

KDM2A (UniProt Q9Y2K7)
inactive: [1] 0.137 | [3] -0.14 | [4] -0.017 | entinostat 0.151 | vorinostat 0.103 | citarinostat 0.018 | silmitasertib -0.037 | [5] -0.02 | [6] -0.114 | entospletinib 0.013

KATNBL1 (UniProt Q9H079)
inactive: [1] 0.056 | [3] 0.006 | [4] -0.167 | entinostat 0.107 | vorinostat 0.02 | citarinostat -0.057 | silmitasertib -0.04 | [6] -0.247 | entospletinib 0.274

KRIT1 (UniProt O00522)
inactive: [1] -0.169 | [4] 0.092 | entinostat -0.261 | vorinostat 0.018 | [5] 0.204

3 entries picked at random from the list so far, as already listed:
KIAA0930 isoform 2 (UniProt Q6ICG6)
inactive: [1] -0.148 | [3] -0.076 | [4] -0.037 | entinostat -0.076 | citarinostat -0.214 | silmitasertib 0.026 | [5] 0.135 | [6] -0.059 | entospletinib -0.212

KCNK1 (UniProt O00180)
inactive: [1] 0.072 | entinostat -0.071 | vorinostat -0.143 | citarinostat -0.077 | [5] -0.006 | [6] 0.504 | entospletinib -0.138

JPT2 isoform 2 (UniProt Q9H910)
inactive: [1] 0.015 | [2] 0.11 | [3] 0.074 | [4] 0.18 | entinostat 0.033 | citarinostat 0.1 | silmitasertib -0.233 | [6] 0.046 | entospletinib 0.091

(listing goes on)

KPTN (UniProt Q9Y664)
inactive: [2] -0.083 | [3] -0.188 | [4] -0.015 | vorinostat 0.006 | citarinostat 0.051 | silmitasertib 0.106 | [5] 0.064 | [6] -0.009 | entospletinib 0.088

KIAA1109 (UniProt Q2LD37)
inactive: [1] 0.012 | entinostat -0.171 | vorinostat -0.32 | citarinostat 0 | [6] 0.196 | entospletinib -0.095

JCHAIN (UniProt P01591)
inactive: [3] -0.165 | citarinostat 0.714 | silmitasertib 0.894 | [6] 0.517 | entospletinib -0.314

KRR1 (UniProt Q13601)
inactive: vorinostat 0.135 | citarinostat 0.026 | [6] -0.063 | entospletinib 0.105

KIF16B isoform 2 (UniProt Q96L93)
inactive: [2] 0.027 | citarinostat -0.022 | [6] 0 | entospletinib 0.067

KDELR3 (UniProt O43731)
inactive: [2] 0.109 | [3] -0.061 | silmitasertib 0.097

KHSRP (UniProt M0R3J3)
inactive: [5] -0.072

KIFAP3 (UniProt Q92845)
inactive: citarinostat -0.056 | [5] 0.073 | [6] -0.135 | entospletinib -0.161

KIF1B isoform 3 (UniProt O60333)
inactive: [3] -0.073 | [4] -0.389 | citarinostat 0.043 | silmitasertib -0.057 | [6] -0.55

KLHDC10 (UniProt Q6PID8)
inactive: vorinostat 0.131

KIF20B isoform 2 (UniProt Q96Q89)
inactive: vorinostat -0.042

KLK10 (UniProt O43240)
inactive: citarinostat -0.179 | [6] 0.577 | entospletinib -0.117

KNOP1 (UniProt Q1ED39)
inactive: [2] 0.085 | [3] 0.201 | [4] -0.028 | vorinostat -0.021 | citarinostat 0.043 | silmitasertib -0.122 | [6] 0.077 | entospletinib -0.078

KMT2E (UniProt Q8IZD2)
inactive: [5] -0.177

KIF4A (UniProt O95239)
inactive: [4] -0.13 | vorinostat 0.149 | citarinostat 0.054 | [6] -0.215 | entospletinib -0.025

KIF20A (UniProt O95235)
inactive: [2] -0.052 | [5] 0.184

KIAA1755 (UniProt Q5JYT7)
inactive: [4] 0.022 | citarinostat 0.063 | [5] 0.179 | [6] -0.03 | entospletinib 0.01

KIAA0040 (UniProt Q15053)
inactive: [2] -0.144 | [3] 0.182 | [4] -0.094 | silmitasertib -0.04

KIFC1 (UniProt Q9BW19)
inactive: [2] 0.079 | [3] 0.201 | vorinostat 0.298 | silmitasertib -0.291 | [5] 0.291

KLHL42 (UniProt Q9P2K6)
inactive: [5] -0.107

KLHL36 (UniProt Q8N4N3)
inactive: [3] 0.002 | citarinostat -0.134 | silmitasertib 0.13 | [5] -0.086 | [6] -0.104 | entospletinib 0.07

KIF21B (UniProt O75037)
inactive: [5] -0.101

JOSD1 (UniProt Q15040)
inactive: [2] -0.045 | [5] -0.055

KIZ (UniProt Q2M2Z5)
inactive: [2] -0.067 | vorinostat 0.137 | citarinostat -0.094 | [6] 0.045

KALRN (UniProt O60229)
inactive: citarinostat 0.103 | [5] -0.023 | [6] 0.098 | entospletinib -0.139
